# According to patent publication US11535597B2, “Photoreactive ligands and uses thereof” (The Scripps Research Institute, priority 2017, dated 2022):
# “And” between values parts separate entries of the source, which are not always exact repeats. Identical values can stand only once. Some of these results come from one statement about several compounds together. Some ranges recur; such a range may be that of the whole group of compounds.
# Test system: proteins in HEK293T cells
# Assay: MS-based mapping of FFF probe-modified peptides (isoTOP, sites of labeling)
# Assay type: binding, human
# Experimental: Preparation and analysis was adapted from methods previously reported. In brief, for global mapping of fragment probe-modified peptides, separate 10 cm dishes of cells were treated with probes (200-250 μM) in 3.0 mL of DMEM (serum-free) and (if applicable) competitor ligands, proteomes harvested and subjected to click chemistry conditions with either light or heavy isotopically labeled biotin-TEV-azide (10 μL of 5 mM stocks in DMSO, final concentration=100 μM), TCEP, ligand and CuSO4 as detailed above. The samples were allowed to react for 1 h at which point the samples were centrifuged (16,000 g, 5 min, 4° C.). The resulting pellets were sonicated in ice-cold methanol (500 μL) and the resuspended light- and heavy-labeled samples were then combined and centrifuged (16,000 g, 5 min, 4° C.). The pellets were then solubilized in PBS containing 1.2% SDS (1 mL) with sonication and heating (5 min, 95° C.). Samples were transferred to falcon tubes containing DPBS (5 mL), to which a 100 μL of streptavidin-agarose beads slurry was added. After incubation, the beads (3 hr) were pelleted by centrifugation (1,400 g, 3 min) and were washed (2×10 mL PBS and 2×10 mL water). The beads were transferred to eppendorf tubes with 1 mL DPBS, centrifuged (1,400 g, 3 min), and resuspended in PBS containing 6 M urea. To this was added 10 mM DTT (25 μL of a 200 mM stock in water) and the beads were incubated at 65° C. for 15 mins. 20 mM iodoacetamide (25 μL of a 400 mM stock in water) was then added and allowed to react at 37° C. for 30 mins with shaking. The bead mixture was diluted with 900 μL PBS, pelleted by centrifugation (1,400 g, 3 min), and resuspended in 200 μL 2M urea (DPBS) containing trypsin and CaCl2 as described above. The beads were separated from the digest by centrifugation (1,000 g, 1 min), washed (2×1 mL PBS and 2×1 mL water) and then transferred to fresh eppendorfs with 1 mL water. The washed beads were washed once further in 150 μL TEV buffer (50 mM Tris, pH 8, 0.5 mM EDTA, 1 mM DTT) by centrifugation (1,400 g, 3 min) and the resuspended in 150 μL TEV buffer. 5 μL TEV protease (80 μM) was added and the reactions were rotated overnight at 29° C. The TEV digest was separated from the beads by centrifugation (1,400 g, 3 min) and the beads were washed once with water (100 μL). The samples were then acidified to a final concentration of 5% (v/v) formic acid and stored at −80° C. prior to analysis.
# The resulting probe-modified peptides were collected for MS analysis, which was performed as described above with differences in the salt bumps applied in the chromatographic gradients which in this case were 0%, 30%, 60%, 90% and 100% NH4OAc (500 μM). The protein identification searches of the MS data were performed with the following changes applied to identify the peptides modified with the corresponding fragment probe and the cleaved TEV tag. All amino acids were considered as possible residues for modification. To facilitate the computational searches, sets of up to 3 amino acids were searched using ProLuCID and filtered with DTASelect as described above. […] The isoTOP ratios for probe labeled peptides were quantified using the in-house software CIMAGE.
# For each protein in the site-of-labeling dataset, the UniProtKB accession number was used to map and collect relevant structures from the RCSB Protein Data Bank (PDB) fulfilling the following criteria: structures determined by X-ray crystallography, wild-type protein, Homo sapiens as the sole source organism. […] Fpocket 2.0 was used to detect potential binding pockets for the resultant structures with all parameters set at recommended default. Pockets with volume less than 500 Å^3 were removed from output prior to further analysis. Residues surrounding fpocket predicted binding pockets for each protein were collected to determine the number of residues overlapping with isoTOP peptides.
smiles,measurement,setting,value
"C#CCCC1(CCC(=O)NC2N=C(c3ccccc3)c3ccccc3NC2=O)N=N1 (stereo not shown) [probe 2, 3-(3-(But-3-yn-1-yl)-3H-diazirin-3-yl)-N-(2-oxo-5-phenyl-2,3-dihydro-1H-benzo[e][1,4]diazepin-3-yl)propanamide]",Labeled Peptide of HNRNPC Heterogeneous nuclear ribonucleoproteins C1/C2,"Accession P07910, residues of probe-labeled peptide, family Transcription factors, Regulators",51-61 and 74-89
same,Labeled Peptide of HMOX2 Heme oxygenase 2,"Accession P30519 (r933 prints P03519), residues of probe-labeled peptide, family Enzymes",48-55
same,Labeled Peptide of HNRNPH3 Heterogeneous nuclear ribonucleoprotein H3,"Accession P31942, residues of probe-labeled peptide, family Transcription factors, Regulators",206-222 and 262-287
same,Labeled Peptide of HNRNPA3 Heterogeneous nuclear ribonucleoprotein A3,"Accession P51991, residues of probe-labeled peptide, family Transcription factors, Regulators",355-376
same,Labeled Peptide of HNRNPF Heterogeneous nuclear ribonucleoprotein F,"Accession P52597, residues of probe-labeled peptide, family Transcription factors, Regulators",151-167 and 300-316
same,Labeled Peptide of HEATR3 HEAT repeat-containing protein 3,"Accession Q7Z4Q2, residues of probe-labeled peptide, family Uncategorized",224-250
same,Labeled Peptide of HM13 Minor histocompatibility antigen H13,"Accession Q8TCT9, residues of probe-labeled peptide, family Enzymes",62-73
same,"Labeled Peptide of HADH Hydroxyacyl-coenzyme A dehydrogenase, mitochondrial","Accession Q16836, residues of probe-labeled peptide, family Enzymes",250-271
same,Labeled Peptide,"HADH Hydroxyacyl-coenzyme A dehydrogenase, mitochondria, residues of probe-modified peptide",250-271
same,Labeled Peptide,"HMOX2 Heme oxygenase 2, residues of probe-modified peptide",48-55
same,Labeled Peptide,"HNRNPK Heterogeneous nuclear ribonucleoprotein K, residues of probe-modified peptide",434-456
same,Labeled Peptide,"HSD17B10 3-hydroxyacyl-CoA dehydrogenase type-2, residues of probe-modified peptide",10-29
same,Labeled Peptide,"LRRC59 (Q96AG4), residues of the probe-labeled peptide",268-292
same,Labeled Peptide,"MTCH1 Mitochondrial carrier homolog 1 (Q9NZJ7), residues of the probe-labeled peptide",65-103
same,Labeled Peptide,"MTFP1 Mitochondrial fission process protein 1 (Q9UDX5), residues of the probe-labeled peptide",21-33
same,Labeled Peptide,"MTX1 Metaxin-1 (Q13505), residues of the probe-labeled peptide",238-252
same,Labeled Peptide,"NAA15 (Q9BXJ9), residues of the probe-labeled peptide",798-818
same,Labeled Peptide,"NAP1L1 Nucleosome assembly protein 1-like 1 (P55209), residues of the probe-labeled peptide",56-72
same,Labeled Peptide,"NCBP1 (Q08161), residues of the probe-labeled peptide",42-65
same,Labeled Peptide,"NHP2L1 (P55769), residues of the probe-labeled peptide",114-125
same,Labeled Peptide,"NONO (Q15233), residues of the probe-labeled peptide",154-176
same,Labeled Peptide,"NUCB1 Nucleobindin-1 (Q02818), residues of the probe-labeled peptide",54-69
same,Labeled Peptide,"O95831 AIFM1 Apoptosis-inducing factor 1, mitochondrial",475-510
same,Labeled Peptide,"OCIAD1 (Q9NX40), residues of the probe-labeled peptide",34-46
same,Labeled Peptide,"P4HB Protein disulfide-isomerase (P07237), residues of the probe-labeled peptide",231-247
same,Labeled Peptide,P07339 CTSD Cathepsin D,314-331
same,"Labeled Peptide (residues) of PDHB Pyruvate dehydrogenase E1 component subunit beta,","P11177, peptide VFLLGEEVAQYDGAYK, PDB 3EXE",53-68
same,Labeled Peptide,P18085 ARF4 ADP-ribosylation factor 4,39-59
same,Labeled Peptide,P30519 HMOX2 Heme oxygenase 2,48-55
same,Labeled Peptide (residues) of PPT1 Palmitoyl-protein thioesterase 1,"P50897, peptide TLMEDVENSFFLNVNSQVTTVCQALAK, PDB 3GRO",75-101
same,Labeled Peptide,P84085 ARF5 ADP-ribosylation factor 5,39-59
same,Labeled Peptide (residues) of EX01 Exonuclease 1,"Q9UQ84, peptide SQGVDCLVAPYEADAQLAYLNK, PDB 3QEB",139-160
same,Labeled Peptide,"protein AIFM1 (O95831), residues of probe-labeled peptide",475-510
same,Labeled Peptide,"protein AIFM1 Apoptosis-inducing factor 1, mitochondrial, residues of probe-labeled peptide",475-510
same,Labeled Peptide,"protein APOO (Q9BUR5), residues of probe-labeled peptide",173-182
same,Labeled Peptide,"protein ARF1 (P84077), residues of probe-labeled peptide",39-59
same,Labeled Peptide,"protein ARF1 ADP-ribosylation factor 1, residues of probe-labeled peptide",39-59
same,Labeled Peptide,"protein ARF3 (P61204), residues of probe-labeled peptide",39-59
same,Labeled Peptide,"protein ARF4 (P18085), residues of probe-labeled peptide",39-59
same,Labeled Peptide,"protein ARF4 ADP-ribosylation factor 4, residues of probe-labeled peptide",39-59
same,Labeled Peptide,"protein ARF5 (P84085), residues of probe-labeled peptide",39-59
same,Labeled Peptide,"protein ARF5 ADP-ribosylation factor 5, residues of probe-labeled peptide",39-59
same,Labeled Peptide,"protein ATP5A1 (P25705), residues of probe-labeled peptide",442-463
same,Labeled Peptide,"protein ATP5F1 (P24539), residues of probe-labeled peptide",56-70
same,Labeled Peptide,"protein CCDCC47 (Q96A33), residues of probe-labeled peptide",197-212
same,Labeled Peptide,"protein CLPTM1 Cleft lip and palate transmembrane protein 1 (O96005), residues of probe-labeled peptide",325-346
same,Labeled Peptide,"protein COQ5 2-methoxy-6-polyprenyl-1,4-benzoquinol methylase (Q5HYK3), residues of probe-labeled peptide",258-279
same,Labeled Peptide,"protein COX5A Cytochrome coxidase subunit 5A, mitochondrial (P20674), residues of probe-labeled peptide",73-87
same,Labeled Peptide,"protein CTSB Cathepsin B (P07858), residues of probe-labeled peptide",315-331
same,Labeled Peptide,"protein CTSD Cathepsin D, residues of probe-labeled peptide",314-331
same,Labeled Peptide,"protein CTSD Cathespin D (P07339), residues of probe-labeled peptide",314-331
same,Labeled Peptide,"protein CYB5B Cytochrome b5 type B (O43169), residues of probe-labeled peptide",138-144
same,Labeled Peptide,"protein DDX17 Propable ATP-dependent RNA helicase DDX17 (Q92841), residues of probe-labeled peptide",406-417
same,Labeled Peptide,"protein DHCR24 Delta(24)-sterol reductase (Q15392), residues of probe-labeled peptide",334-352
same,Labeled Peptide,"protein EIF5 Eukaryotic translation initiation factor 5 (P55010), residues of probe-labeled peptide",274-288
same,Labeled Peptide,"protein ELAVL1 ELAV-like protein 1 (Q15717), residues of probe-labeled peptide",20-37
same,Labeled Peptide,"protein ELAVL1 ELAV-like protein 1, residues of probe-labeled peptide",20-37
same,Labeled Peptide,"protein EXO1 Exonuclease 1 (Q9UQ84), residues of probe-labeled peptide",139-160
same,Labeled Peptide,"protein EXO1 Exonuclease 1, residues of probe-labeled peptide",139-160
same,Labeled Peptide,"protein NCBP1 Nuclear cap-binding protein subunit 1, residues of the probe-labeled peptide",42-65
same,Labeled Peptide,"protein NONO Non-POU domain-containing octamer-binding protein, residues of the probe-labeled peptide",154-176
same,Labeled Peptide,protein O60830 TIMM17B Mitochondrial import inner membrane translocase su,13-35
same,Labeled Peptide,"protein P4HB Protein disulfide-isomerase, residues of the probe-labeled peptide",231-247
same,Labeled Peptide,protein P12235 SLC25A4 ADP/ATP translocase 1,189-199
same,Labeled Peptide,"protein P23246 SFPQ Splicing factor, proline- and glutamine-rich",377-399 and 444-462
same,Labeled Peptide,protein P23396 RPS3 40S ribosomal protein S3,77-90
same,Labeled Peptide,"protein P34897 SHMT2 Serine hydroxymethyltransferase, mitochondrial",105-121
same,Labeled Peptide,protein PDHB Pyruvate dehydrogenase E1 component subunit beta (P11177),53-68
same,Labeled Peptide,"protein PDHB Pyruvate dehydrogenase El component subunit beta, residues of the probe-labeled peptide",53-68
same,Labeled Peptide,"protein PGRMC1 Membrane-associated progesterone receptor componen, residues of the probe-labeled peptide",106-119
same,Labeled Peptide,protein PHB2 Prohibitin-2 (Q99623),38-48 and 55-71
same,Labeled Peptide,"protein PITRM1 Presequence protease, mitochondrial (Q5JRX3)",364-385
same,Labeled Peptide,"protein POLRMT DNA-directed RNA polymerase, mitochondrial (O00411)",482-502
same,Labeled Peptide,protein PPT1 Palmitoyl-protein thioesterase 1 (P50897),75-101
same,Labeled Peptide,"protein PPT1 Palmitoyl-protein thioesterase 1, residues of the probe-labeled peptide",75-101
same,Labeled Peptide,protein PSMB1 Proteasome subunit beta type-1 (P20618),129-146
same,Labeled Peptide,"protein PSMB1 Proteasome subunit beta type-1, residues of the probe-labeled peptide",129-146
same,Labeled Peptide,protein PSMB2 Proteasome subunit beta type-2 (P49721),96-126
same,Labeled Peptide,"protein PSMB2 Proteasome subunit beta type-2, residues of the probe-labeled peptide",96-126
same,Labeled Peptide,protein PSMD11 26S proteasome non-ATPase regulatory subunit 11 (O00231),227-246
same,Labeled Peptide,protein PTGR2 Prostaglandin reductase 2 (Q8N8N7),262-278
same,Labeled Peptide,"protein PTGR2 Prostaglandin reductase 2, residues of the probe-labeled peptide",262-278
same,Labeled Peptide,protein Q6P4A7 SFXN4 Sideroflexin-4,43-66
same,Labeled Peptide,protein Q9HB40 SCPEP1 Retinoid-inducible serine carboxypeptidase,256-275
same,Labeled Peptide,protein Q9NS69 TOMM22 Mitochondrial import receptor subunit TOM22 homolog,61-76
same,Labeled Peptide,protein Q9UJS0 SCLC25A13 Calcium-binding mitochondrial carrier protein Aral,261-282
same,Labeled Peptide,protein Q92973 TNPO1 Transportin-1,45-64
same,Labeled Peptide,protein Q99595 TIMM17A Mitochondrial import inner membrane translocase su,13-35
same,Labeled Peptide,protein RMB3 Putative RNA-binding protein 3 (P98179),8-39
same,Labeled Peptide,"protein SFPQ Splicing factor, proline- and glutamine-rich, residues of the probe-modified peptide",377-399 and 444-462
same,Labeled Peptide,"protein SLC25A13 Calcium-binding mitochondrial carrier protein Aral, residues of the probe-modified peptide",261-282
same,Labeled Peptide,"protein TNPO1 Transportin-1, residues of the probe-modified peptide",45-64
same,Labeled Peptide,"protein VIM Vimentin, residues of the probe-modified peptide",197-207
same,Labeled Peptide,"protein XRCC6 X-ray repair cross-complementing protein 6, residues of the probe-modified peptide",475-488 and 489-510
same,Labeled Peptide,"residues of probe-labeled peptide on TUBA4A Tubulin alpha-4A chain, Accession # P68366",244-264
same,Labeled Peptide,"residues of probe-labeled peptide on TUBA8 Tubulin alpha-8 chain, Accession # Q9NY65",244-264
same,Labeled Peptide,"residues of probe-labeled peptide on TUBB6 Tubulin beta-6 chain, Accession # Q9BUF5",337-350
same,Labeled Peptide,"residues of probe-labeled peptide on TUFM Elongation factor Tu, mitochondrial, Accession # P49411",183-200
same,Labeled Peptide,"residues of probe-labeled peptide on UQCRC1 Cytochrome b-c1 complex subunit 1, mitochondrial, Accession # P31930",397-415
same,Labeled Peptide,"residues of probe-labeled peptide on XRCC6 X-ray repair cross-complementing protein 6, Accession # P12956",475-488 and 489-510
